Data: US7129271B2, “Compounds for pest control and methods for their use” (The United States of America as represented by the …, priority 2000, dated 2006)

What was measured:
[1] = test system: X. cheopis adults; assay: Flea bioassay, treated vials (Example 9); assay type: in vivo; conditions: 24 h exposure; probit analysis
Procedure: Flea Colonies. Adult X. cheopis fleas (1–3 wk old) were obtained from a colony founded more than eight years ago using adults received from Tom Schwan, Rocky Mountain Laboratories, Hamilton, Mont. The area from which these original adult fleas were obtained, and the resulting colony, have no known histories of pesticide exposure.
(§1) Tick and Flea Bioassays. Concentrations of the compounds were prepared by 2-fold serial dilutions of a 0.5% (wt:vol) solution of the extracts in acetone. […] A control treated with acetone only was run with each series. Tick and flea susceptibility was evaluated using a modified disposable pipette method. See, Barnard, D. R., et al., J. Econ. Entomol.
(§2) The inner surface of 2-dram friction cap vials were treated with the compound/acetone solution, or acetone only as a control, and left to air-dry overnight. Three to 4 holes were made in the plastic cap to allow for air exchange. Nymphal ticks and adult fleas were then placed directly into the vials using forceps. Vials containing ticks or fleas were placed in desiccators for 24 h at 21° C. and 90% RH. Morbidity and mortality was recorded at 1, 2, 4, 8, and 24 h after initial exposure.

[2] = test system: Ae. aegypti adults; assay: Mosquito bottle bioassay (Example 9); assay type: in vivo; conditions: 24 h exposure; probit analysis
Procedure: Mosquito Colonies. Aedes aegypti adult mosquitoes were obtained from an existing colony at the Centers for Disease Control and Prevention (CDC), Division of Vector-Borne Infectious Diseases (DVBID), Fort Collins, Colo. This colony has been maintained for over fifteen years with no known history of exposure to pesticides. Mosquitoes were reared at 28° C., 85% RH, and a 14:10 h (light:dark) cycle. Larvae were grown in de-ionized water and fed ground liver powder solution ad libitum. Fourth instars were removed and placed in emergence cages, and adults were fed a 2% sucrose solution until assayed. Adults were exposed to test products at 4–7 d after emergence.
(§3) Mosquit Bioassay. Adult mosquitoes were tested using the bottle bioassay method of Brogden, W. G., and McAllister, J. C., J. Am. Mosq. Control Assoc. 14:159–64 (1998), with minor modifications. Natural product extracts were two-fold serially diluted for a total of 8 concentrations ranging from 0.002% to 0.25% in 1.5 ml of acetone. Individual dilutions were added to 250 ml Wheaton glass bottles and capped. Bottles were manipulated to evenly coat all inner surfaces. The caps were removed and bottles were allowed to air-dry overnight. Once bottles were completely dry, 10–50 adult mosquitoes were aspirated into the bottles. Mosquitoes were held in the bottles for 24 h at 23° C. and 85% RH. Morbidity and mortality were recorded at 15, 30, 45, and 60 min and 24 hour intervals. One bottle for each replicate was treated with acetone only and served as a control. The dose-mortality data was evaluated with probit analysis, using the LdP Line software, to determine LC50 and LC90 values.

[3] = test system: I. scapularis nymphs; assay: Tick bioassay, modified disposable pipette method, treated vials (Example 9); assay type: in vivo, Ixodes scapularis; conditions: 24 h exposure; probit analysis
Procedure: Tick Colonies. […] There was no known pesticide used at this location. Ticks were maintained at 21° C., 90% RH, and received a 16:8 h (light:dark) cycle as described in […]. Med. […] Tick and Flea Bioassays. […] A control treated with acetone only was run with each series. Tick and flea susceptibility was evaluated using a modified disposable pipette method. See, Barnard, D. R., et al., J. Econ. […] Three to 4 holes were made in the plastic cap to allow for air exchange. Nymphal ticks and adult fleas were then placed directly into the vials using forceps. Vials containing ticks or fleas were placed in desiccators for 24 h at 21° C. and 90% RH. […] For each time point, if ticks were incapable of movement, maintaining normal posture, leg coordination, ability to right themselves, or any signs of life, they were considered moribund or dead.

[4] = test system: Aedes aegypti adults; assay: Residual activity, treated bottles aged before loading (Example 9); assay type: in vivo
Procedure: as §3

[5] = test system: Ixodes scapularis nymphs; assay: Residual activity, treated vials aged before loading (Example 9); assay type: in vivo
Procedure: as §1, with “acetone. The approximate toxicity of individual compounds was determined with a total of 8 doses ranging from 0.002% to 0.25%.” for “acetone.”, “Entomol. 74:466–69 (1981).” for “Entomol.”
as §2, with “Groups of 10 nymphal I. scapularis and X. cheopis fleas were used in all tests, resulting in a total of 5,240 nymphs and 4,860 fleas exposed to the compounds. The” for “The”

[6] = test system: Xenopsylla cheopis adults; assay: as above; assay type: in vivo
Procedure: as §1, with “acetone. The approximate toxicity of individual compounds was determined with a total of 8 doses ranging from 0.002% to 0.25%.” for “acetone.”, “Entomol. 74:466–69 (1981).” for “Entomol.”
as §2, with “Groups of 10 nymphal I. scapularis and X. cheopis fleas were used in all tests, resulting in a total of 5,240 nymphs and 4,860 fleas exposed to the compounds. The” for “The”

[7] = residual activity at 1 week after treatment
[8] = residual activity at 2 weeks after treatment
[9] = residual activity at 4 weeks after treatment

Row | SMILES | Slope [1] | Slope [2] | Slope [3] | Slope [4, 7] | Slope [5, 7] | Slope [4, 8] | Slope [4, 9] | Slope [6, 7] | Slope [6, 8] | Slope [5, 8] | Slope [5, 9] | Slope [6, 9]
1 | Cc1ccc(C(C)C)cc1O [Compound 4, Carvacrol] | 3.413 | 2.908 | 3.906 |  |  |  |  |  |  |  |  | 
2 | C=C(C)[C@@H]1CCC2=CCC[C@@H](C)[C@]2(C)C1 [Compound 5, Valencene] | 6.925 | 3.199 |  |  |  |  |  |  |  |  |  | 
3 | C=C(C)C1CC=C2C=CCC(C)C2(C)C1 (centres unmarked) [Compound 6, Nootkatene] | 2.022 | 3.696 |  | 1.833 | 0.533 |  |  |  |  |  |  | 
4 | C=C(C)[C@@H]1CCC2=CC(=O)C[C@@H](C)[C@]2(C)C1 [Compound 7, Nootkatone] |  |  |  | 3.043 | 1.682 | 3.342 | 2.698 | 2.546 | 2.033 | 1.586 | 1.609 | 
5 | C=C(C)[C@@H]1CCC2=CC(=O)C[C@@H](C)[C@]2(C)C1 [Compound 8, Nootkatone] |  |  |  | 3.858 | 2.871 | 4.953 | 7.772 | 3.107 | 1.931 | 2.727 | 2.871 | 1.95
6 | C=C(C)[C@@H]1CCC2=CC(=O)C[C@@H](C)[C@]2(C)C1 [Compound 9, Nootkatone] |  |  |  | 4.336 | 1.304 | 4.014 | 4.169 | 1.633 | 2.571 | 2.649 |  | 3.135
7 | C=C(CO)C1CCC2=CCC[C@@H](C)[C@]2(C)C1 (some centres unmarked) [Compound 10, 13-hydroxy-valencene] | 3.143 | 2.094 |  | 3.286 | 3.005 | 6.932 | 2.645 | 2.218 | 2.442 | 1.781 | 1.285 | 
8 | CC(C)=CCc1ccc(O)c(=O)cc1C(C)C [Compound 11, Nootkatin] |  | 1.327 |  |  |  |  |  |  |  |  |  | 
9 | C=C(C)[C@@H]1CCC2=C[C@@H](O)C[C@@H](C)[C@]2(C)C1 [Compound 12, Nootkatol] | 2.101 | 3.201 | 3.069 |  |  |  |  |  |  |  |  | 
10 | C[C@@H]1CCC=C2CCC(C3(C)CO3)C[C@]21C (some centres unmarked) [Compound 13, valencene-11,12-epoxide] |  | 1.581 |  |  |  |  |  |  |  |  |  | 
11 | C=C(C=O)C1CCC2=CCC[C@@H](C)[C@]2(C)C1 (some centres unmarked) [Compound 15, valencene-13-aldehyde] | 5.366 | 8.714 |  | 3.392 | 2.859 | 3.136 |  | 3.211 |  |  |  | 
12 | C=C(C)C1CCC23OC2C(=O)C[C@@H](C)[C@]3(C)C1 (some centres unmarked) [Compound 17, nootkatone-1,10-epoxide] | 2.326 | 1.346 |  |  |  |  |  |  |  |  |  | 
13 | C[C@@H]1CC(=O)C2OC23CCC(C2(C)CO2)C[C@@]13C (some centres unmarked) [Compound 18, nootkatone-1,10-11,12-diepoxide] | 1.455 | 4.472 |  |  |  |  |  |  |  |  |  | 
